The whole screen tested about 320,000 compounds, of which about 22,000 (6.9%) were called active. The shares of active, inactive and inconclusive entries below differ from those in the screen. Calls follow the shape of the dose curve; as a rule, active = well fitted inhibition curve with a large enough effect; inconclusive = small, poorly fitted or top-dose-only effect, or another doubt; inactive = no such curve, though single readings can be large or run the other way. Potencies of inconclusive entries are doubtful fits and often do not repeat.
assay: Primary qHTS for delayed death inhibitors of the malarial parasite plastid, 96 hour incubation; conditions: P. falciparum luciferase reporter growth; series mostly up to 28.7 µM
Summary of the method: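 Erythrocytes infected with luciferase-expressing P. falciparum were dispensed at 2% hematocrit and 0.05% parasitemia (final), then incubated with compounds 96 hours at 37 C in 5% CO2. Luminescence after detection reagent addition reported growth.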
Potency is read from the fitted curve at half-maximal effect.

Question: For CN1CCN(Cc2ccc(OCc3ccccc3)cc2)CC1, which Potency is on record?
Answer: inconclusive: 6.57 µM [inhibitor, partial curve, poor fit]

Question: With CC(=O)Oc1ccc(C(=O)Nc2ccc3c(c2)OCCO3)cc1 as the compound, how does the Potency read?
Answer: inconclusive: 16.5 µM [inhibitor, single point]

Question: For Cc1sc(NC(=O)c2ccco2)c(CN2CCCCC2)c1C, which Potency is on record?
Answer: inconclusive: 8.28 µM [inhibitor, partial curve, poor fit]

Question: Which Potency does the source give for O=C(O)/C(=C\c1cccc(O)c1)c1ccc(S(=O)(=O)N2CCCC2)s1 here?
Answer: inconclusive: 18.5 µM [inhibitor, single point]

Question: Which Potency does the source give for Cc1ccc(C(C)C)c(OCc2ccc(C(=O)N/N=C/c3ccc(O)c(O)c3)cc2)c1 here?
Answer: inconclusive: 7.38 µM [inhibitor, partial curve, poor fit]

Question: With O=C(NCCCc1ccccc1)Nc1ccccc1 as the compound, how does the Potency read?
Answer: inactive

Question: With Cc1cc2cc(CNC(=O)c3ccc(S(=O)(=O)N4CCCCC4)cc3)ccc2n1C as the compound, how does the Potency read?
Answer: inactive

Question: With CC(=O)c1ccc(NC(=O)c2cc(S(=O)(=O)N3CCOCC3)ccc2C)cc1 as the compound, how does the Potency read?
Answer: inconclusive: 8.28 µM [inhibitor, partial curve]

Question: Which Potency does the source give for Cc1ccc(C(=O)N/C(=C\c2cccs2)C(=O)NCCc2c[nH]c3ccccc23)cc1 here?
Answer: inconclusive: 11.7 µM [inhibitor, single point]

Question: Which Potency does the source give for COC(=O)N1CC(C)N(C(=O)OC)CC1C (configuration not stated) here?
Answer: inconclusive: 18.5 µM [inhibitor, single point]

Question: Which Potency does the source give for O=C(CCN1CCCCC1)Nc1ccccc1 here?
Answer: inconclusive: 0.0019 µM [inhibitor, full curve, poor fit]

Question: With CCC(Sc1nc2cc(OC)c(OC)cc2c(=O)n1Cc1ccc(OC)cc1)C(=O)NCCOC (configuration not stated) as the compound, how does the Potency read?
Answer: inconclusive: 18.5 µM [inhibitor, single point]

Question: Which Potency does the source give for CCc1nnc(NC(=O)/C=C/c2ccc(C)o2)s1 here?
Answer: active: 10.4 µM

Question: For CCC1CCCCN1CCN1C(=O)C2C(C(=O)Nc3ccc(OC)cc3)C3C=CC2(O3)C1C(=O)NC1CCCCC1 (configuration not stated), which Potency is on record?
Answer: inactive

Question: For Cc1ccc(-c2nnn(CC(=O)N(CC(=O)NCC3CCCO3)c3ccc(F)c(Cl)c3)n2)o1 (configuration not stated), which Potency is on record?
Answer: inconclusive: 0.185 µM [inhibitor, full curve, poor fit]

Question: Which Potency does the source give for COCCn1c(SCC(=O)OC(C)C)nnc1-c1ccccc1 here?
Answer: inconclusive: 8.28 µM [inhibitor, partial curve, poor fit]

Question: Which Potency does the source give for CC(C)Nc1ccc(Nc2ccnc3cc4ccccc4cc23)cc1 here?
Answer: active: 0.586 µM

Question: With CC(Oc1ccc(-c2ccccc2)cc1)C(=O)N/N=C/c1cccnc1 (configuration not stated) as the compound, how does the Potency read?
Answer: inactive

Question: Which Potency does the source give for Cc1cc([N+](=O)[O-])nn1CC(=O)Nc1sc2c(c1C(N)=O)CCCC2 here?
Answer: inconclusive: 2.08 µM [inhibitor, full curve]

Question: Which Potency does the source give for CC(OC(=O)Cn1[nH]c(=O)c2ccccc2c1=O)C(=O)NC1(C#N)CCCCC1 (configuration not stated) here?
Answer: inconclusive: 10.4 µM [inhibitor, single point]

Question: For CCOC(=O)c1ccc(CNC(=O)C2CCC(=O)N(CCc3ccccc3)C2)o1 (configuration not stated), which Potency is on record?
Answer: inactive

Question: Which Potency does the source give for CCN1CCC(O)(C#Cc2ccccc2)CC1 here?
Answer: inactive

Question: Which Potency does the source give for CCc1nnc(NC(=O)CSc2nnc(-c3ccccc3NC(=O)c3ccccc3)o2)s1 here?
Answer: inconclusive: 3.7 µM [inhibitor, partial curve]

Question: Which Potency does the source give for COc1cc(/C=C/C(=O)OCC(=O)Nc2ccc(C)c(S(=O)(=O)N3CCCCC3)c2)ccc1O here?
Answer: inconclusive: 9.28 µM [inhibitor, partial curve, poor fit]

Question: Which Potency does the source give for Cc1cccc(C)c1C(=NCCCN(C)C)c1ccccc1 here?
Answer: active: 4.65 µM

Question: For O=C(Nc1nc(-c2ccc3c(c2)OCO3)cs1)C1CC1, which Potency is on record?
Answer: inactive

Question: With O=C(NC1CCCC1)C(c1cccs1)N(C(=O)c1ccco1)c1ccc2c(c1)OCO2 (configuration not stated) as the compound, how does the Potency read?
Answer: inconclusive: 0.147 µM [inhibitor, full curve, poor fit]

Question: Which Potency does the source give for C[C@H]1CN=C(N(C)C)N1CC1CCC(C(C)(C)C)CC1 (some centres not stated) here?
Answer: inconclusive: 7.38 µM [inhibitor, partial curve, poor fit]

Question: For Cc1cc(C)c2c(c1)cc(C)c1nnc(SCC(=O)Nc3ccccc3N3CCOCC3)n12, which Potency is on record?
Answer: inconclusive: 14.7 µM [inhibitor, single point]

Question: With Cc1c(NS(=O)(=O)c2cc(NC(=O)CCN3CCCC(C)C3)ccc2Cl)c(=O)n(-c2ccccc2)n1C (configuration not stated) as the compound, how does the Potency read?
Answer: inconclusive: 18.5 µM [inhibitor, single point]

Question: With CCN1CCN(C(=O)c2ccc3c(c2)N(Cc2ccccc2)C(=O)c2ccccc2S3(=O)=O)CC1 as the compound, how does the Potency read?
Answer: inactive

Question: Which Potency does the source give for Cc1ccc(C)c(N2CCN(CC(=O)Nc3ccc4[nH]c(=O)[nH]c4c3)CC2)c1 here?
Answer: inconclusive: 2.94 µM [inhibitor, full curve, poor fit]

Question: Which Potency does the source give for Cc1ccc(CN(CC(=O)NC2CCCC2)C(=O)CSc2nnc(COc3ccccc3)o2)cc1 here?
Answer: inconclusive: 23.3 µM [inhibitor, partial curve, poor fit]

Question: Which Potency does the source give for O=C(CSc1nnc(NC(=O)c2c(F)cccc2F)s1)NC1CC1 here?
Answer: inconclusive: 18.5 µM [inhibitor, single point]

Question: With CC1=C(C(=O)Nc2ccccc2)C(c2ccco2)n2ncnc2N1 (configuration not stated) as the compound, how does the Potency read?
Answer: inactive

Question: With COc1ccccc1CCNC(=O)COc1cccc2c1OC(C)(C)C2 as the compound, how does the Potency read?
Answer: inconclusive: 4.15 µM [inhibitor, partial curve, poor fit]

Question: For COc1ccc(NC(=O)NC2CCCCCCC2)c(OC)c1, which Potency is on record?
Answer: inconclusive: 14.7 µM [inhibitor, single point]

Question: With CCN(CC)c1ccc(-c2nnc(SCC(=O)Nc3ccccc3C#N)n2-c2ccccc2)cc1 as the compound, how does the Potency read?
Answer: inconclusive: 10.4 µM [inhibitor, single point]

Question: For Cc1ccccc1CC1(CO)CCCN(C(=O)c2cc(-c3ccccc3)no2)C1 (configuration not stated), which Potency is on record?
Answer: inconclusive: 11.7 µM [inhibitor, single point]

Question: For Cc1noc(NC(=O)c2c(-c3c(Cl)cccc3Cl)noc2C)c1[N+](=O)[O-], which Potency is on record?
Answer: inconclusive: 7.38 µM [inhibitor, partial curve]

Question: For O=C(C[n+]1cc(-c2ccc(Br)cc2)n2c1CCCCC2)c1ccccc1, which Potency is on record?
Answer: inconclusive: 2.33 µM [inhibitor, full curve]

Question: Which Potency does the source give for COc1cccc(OC)c1C(=O)Nc1ccccc1NC(=O)c1c(OC)cccc1OC here?
Answer: inconclusive: 18.5 µM [inhibitor, partial curve, poor fit]

From PubChem BioAssay AID504834 (National Center for Advancing Translational Sciences (NCATS), 2011)
